Assay results: paper PMC6599804, “N^ɛ-acetyl lysine derivatives with zinc binding groups as novel HDAC inhibitors” (Royal Society Open Science, 2019)

How the values were obtained:
HDACⅡa = assay: HDAC subtype selectivity assay with subtype substrate, HDACⅡa; format: biochemical, human; conditions: 1μM; Hela nuclear extract; substrate of corresponding subtype
Excerpt: against both tumor cells and normal cells, then calculate and compare their selective index.” […]
of Supporting Information.
Reponses to Reviewer 2’s comments
Reviewer 2 is also very positive about the manuscript. We thank the reviewer for the helpful comments and careful reading of the manuscript. Our changes and/or responses are detailed below.
Comment 1: “Should add some discussion about whether the synthesized compounds intend to be pan- or specific- HDAC inhibitors.”
S1 of Supporting Information.
Comment 2: “ The cellular data is just described for the acetylation level of tubulin which is only relevant […]
And then incubation at 37℃ for 1h, the mixture was stopped by the addition of 50 μL of Buffer B (200mM HCl/300 mM Acetic acid), fluorescence intensity was measured using a microplate reader at excitation and emission wavelengths of 360 nm and 460 nm. The inhibition ratios were calculated from the fluorescence intensity readings of tested wells relative to those of control wells, […]
The rate of cell survival under the action of test substances was evaluated by an improved MTS assay as previously described. […]
(§1) 48 hours 5ul of MTS reagent solution was added into each well and the cells were incubated for another 4 hours at 37℃ under 5% CO2 environment. The absorbance was measured at 490 nm in […]

K562 cells = assay: MTS cell proliferation assay, K562; format: cell-based; conditions: Homo sapiens, K562, 48 h, read-out: IC50 K562
Procedure: (§2) Because of the great anti-tumour potential of HDAC inhibitors, we did the antiproliferative evaluation of 18c against K562 cells, A549 cells and HepG2 cells using MTS assay as previously described. […]
(§3) The rate of cell survival under the action of test substances was evaluated by an improved MTS assay as previously described. In brief, A549 (5000 cells / well) , HepG2 (5000 cells / well), HEK293 (5000 cells / well) and K562 (1 ×10^4 cells/well) cell lines were seeded into 96-well plates in 100 µL medium. After overnight incubation, each well was added with different […]
as §1
(§4) a Microplate to determine the cell viability. The absorbance was directly proportional to the number of viable cells. All experiments were done in triplicate. […]
(§5) calculate and compare their selective index. […]
(§6) Unbound antibodies

A549 cells = assay: MTS cell proliferation assay, A549; format: cell-based; conditions: Homo sapiens, A549, 48 h, read-out: IC50 A549
Procedure: as §2, §3, §1, §4, §5, §6

HepG2 cells = assay: MTS cell proliferation assay, HepG2; format: cell-based; conditions: Homo sapiens, HepG2, 48 h, read-out: IC50 HepG2
Procedure: as §2, §3, §1, §4, §5, §6

HEK293 = assay: MTS cell proliferation assay, HEK293 (non-cancerous kidney cell); format: cell-based; conditions: Homo sapiens, HEK293, 48 h, read-out: IC50 HEK293
Procedure: as §2, §3, §1, §4, §5, §6

In the case of `O=C(CCCCCCC(=O)Nc1ccccc1)NO` [SAHA (1), Vorinostat, reference compound], the “HDAC Inhibition (%) HDACⅡa” value (HDACⅡa) is reported as 15.51±3.084%, the IC50 (K562 cells) is reported as 4.58 ± 0.17 µM and the IC50 (A549 cells) is reported as 17.8 ± 1.25 µM. For the same molecule, the IC50 (HepG2 cells) was 4.23 ± 0.63 µM and the IC50 (HEK293) was 6.09 ± 0.84 µM.
